From paper PMC6393520
These are yes or no findings as the source states them, for the method shown. Binding seen in cells or lysates may run through a third protein. Some binding calls cover weakened binding; strength is not graded here.

Target: T1, ISL1 (as in the co-immunoprecipitation of Fig. 6f) (UniProt P61371)
T1 sequence: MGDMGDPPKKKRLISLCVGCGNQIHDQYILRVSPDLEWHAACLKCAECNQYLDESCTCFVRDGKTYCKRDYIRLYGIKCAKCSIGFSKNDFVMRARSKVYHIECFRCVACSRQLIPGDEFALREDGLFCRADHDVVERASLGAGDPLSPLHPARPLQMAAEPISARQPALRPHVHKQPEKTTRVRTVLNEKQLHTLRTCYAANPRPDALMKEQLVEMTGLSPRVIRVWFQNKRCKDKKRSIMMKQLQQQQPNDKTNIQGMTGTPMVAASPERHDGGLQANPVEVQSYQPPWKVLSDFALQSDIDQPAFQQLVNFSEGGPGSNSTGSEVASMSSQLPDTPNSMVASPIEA
Assay: co-IP; co-immunoprecipitation analysis, normal IgG as the negative control; cells and precipitating antibody not stated

- binding: binds
B1: SETD7 (as in the co-immunoprecipitation of Fig. 6f) (protein, UniProt Q8WTS6 1-366)
chain: MDSDDEMVEEAVEGHLDDDGLPHGFCTVTYSSTDRFEGNFVHGEKNGRGKFFFFDGSTLEGYYVDDALQGQGVYTYEDGGVLQGTYVDGELNGPAQEYDTDGRLIFKGQYKDNIRHGVCWIYYPDGGSLVGEVNEDGEMTGEKIAYVYPDERTALYGKFIDGEMIEGKLATLMSTEEGRPHFELMPGNSVYHFDKSTSSCISTNALLPDPYESERVYVAESLISSAGEGLFSKVAVGPNTVMSFYNGVRITHQEVDSRDWALNGNTLSLDEETVIDVPEPYNHVSKYCASLGHKANHSFTPNCIYDMFVHPRFGPIKCIRTLRAVEADEELTVAYGYDHSPPGKSGPEAPEWYQVELKAFQATQQK
